# The list shows a part of the results.
# Key:
# Assay in all cases: glycan array binding signal (z-score within array); higher = stronger binding
# Conditions in all cases: glycan notation: IUPAC condensed, linker removed
# [1] = target: Neu5Ac(a2-3)Gal(b1-4)GlcNAc(b1-6)GalNAc
# Outline: (§1)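 The binding signal is a Z-score computed within each array and averaged over linkers. Arrays of the same protein sequence at different concentrations or buffers were also averaged together. Data originate from 3228 arrays in the Consortium for Functional Glycomics database, kept only where the protein sequence was available.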
# [2] = target: Neu5Ac(a2-3)Gal(b1-4)GlcNAc(b1-6)[Gal(b1-3)]GalNAc
# Outline: as §1
# [3] = target: Neu5Ac(a2-3)Gal(b1-4)GlcNAc(b1-6)[Neu5Ac(a2-3)Gal(b1-3)]GalNAc
# Outline: as §1
# [4] = target: Neu5Ac(a2-3)Gal(b1-4)GlcNAc6S
# Outline: as §1
# [5] = target: Neu5Ac(a2-3)Gal(b1-4)[Fuc(a1-3)]GlcNAc
# Outline: as §1
# [6] = target: Neu5Ac(a2-3)Gal(b1-4)[Fuc(a1-3)]GlcNAc(b1-3)Gal
# Outline: as §1
# [7] = target: Neu5Ac(a2-3)Gal(b1-4)[Fuc(a1-3)]GlcNAc(b1-3)Gal(b1-4)GlcNAc
# Outline: as §1
# [8] = target: Neu5Ac(a2-3)Gal(b1-4)[Fuc(a1-3)]GlcNAc(b1-3)Gal(b1-4)[Fuc(a1-3)]GlcNAc(b1-3)Gal(b1-4)[Fuc(a1-3)]GlcNAc
# Outline: as §1
# [9] = target: Neu5Ac(a2-3)Gal(b1-4)[Fuc(a1-3)]GlcNAc(b1-3)GalNAc
# Outline: as §1
# [10] = target: Neu5Ac(a2-3)Gal(b1-4)[Fuc(a1-3)]GlcNAc(b1-6)[Gal(b1-3)]GalNAc
# Outline: as §1
# [11] = target: Neu5Ac(a2-3)Gal(b1-4)[Fuc(a1-3)]GlcNAc6S
# Outline: as §1
# [12] = target: Neu5Ac(a2-3)Gal6S(b1-4)GlcNAc
# Outline: as §1
# [13] = target: Neu5Ac(a2-3)Gal6S(b1-4)[Fuc(a1-3)]GlcNAc
# Outline: as §1
# [14] = target: Neu5Ac(a2-3)GalNAc
# Outline: as §1
# [15] = target: Neu5Ac(a2-3)GalNAc(b1-4)GlcNAc
# Outline: as §1
# [16] = target: Neu5Ac(a2-3)[GalNAc(b1-4)]Gal(b1-4)Glc
# Outline: as §1
# [17] = target: Neu5Ac(a2-3)[GalNAc(b1-4)]Gal(b1-4)GlcNAc
# Outline: as §1
# [18] = target: Neu5Ac(a2-3)[GalNAc(b1-4)]Gal(b1-4)GlcNAc(b1-3)GalNAc
# Outline: as §1
# [19] = target: Neu5Ac(a2-3)[Neu5Ac(a2-6)]GalNAc
# Outline: as §1
# [20] = target: Neu5Ac(a2-6)Gal
# Outline: as §1
# [21] = target: Neu5Ac(a2-6)Gal(b1-3)GlcNAc(b1-3)[Gal(b1-4)GlcNAc(b1-6)]Gal(b1-4)Glc
# Outline: as §1
# [22] = target: Neu5Ac(a2-6)Gal(b1-4)Glc
# Outline: as §1
# [23] = target: Neu5Ac(a2-6)Gal(b1-4)GlcNAc
# Outline: as §1
# [24] = target: Neu5Ac(a2-6)Gal(b1-4)GlcNAc(b1-2)Man(a1-3)Man(b1-4)GlcNAc(b1-4)GlcNAc
# Outline: as §1
# [25] = target: Neu5Ac(a2-6)Gal(b1-4)GlcNAc(b1-2)Man(a1-3)[Gal(b1-4)GlcNAc(b1-2)Man(a1-6)]Man(b1-4)GlcNAc(b1-4)GlcNAc
# Outline: as §1
# [26] = target: Neu5Ac(a2-6)Gal(b1-4)GlcNAc(b1-2)Man(a1-3)[GlcNAc(b1-2)Man(a1-6)]Man(b1-4)GlcNAc(b1-4)GlcNAc
# Outline: as §1
# [27] = target: Neu5Ac(a2-6)Gal(b1-4)GlcNAc(b1-2)Man(a1-3)[GlcNAc(b1-2)Man(b1-4)GlcNAc(b1-2)Man(a1-6)]Man(b1-4)GlcNAc(b1-4)GlcNAc
# Outline: as §1
# [28] = target: Neu5Ac(a2-6)Gal(b1-4)GlcNAc(b1-2)Man(a1-3)[Man(a1-6)]Man(b1-4)GlcNAc(b1-4)GlcNAc
# Outline: as §1
# [29] = target: Neu5Ac(a2-6)Gal(b1-4)GlcNAc(b1-2)Man(a1-3)[Neu5Ac(a2-6)Gal(b1-4)GlcNAc(b1-2)Man(a1-6)]Man(b1-4)GlcNAc(b1-4)GlcNAc
# Outline: as §1
# [30] = target: Neu5Ac(a2-6)Gal(b1-4)GlcNAc(b1-2)Man(a1-3)[Neu5Ac(a2-6)Gal(b1-4)GlcNAc(b1-2)Man(a1-6)]Man(b1-4)GlcNAc(b1-4)[Fuc(a1-6)]GlcNAc
# Outline: as §1
# [31] = target: Neu5Ac(a2-6)Gal(b1-4)GlcNAc(b1-2)Man(a1-6)Man(b1-4)GlcNAc(b1-4)GlcNAc
# Outline: as §1
# [32] = target: Neu5Ac(a2-6)Gal(b1-4)GlcNAc(b1-2)Man(a1-6)[Gal(b1-4)GlcNAc(b1-2)Man(a1-3)]Man(b1-4)GlcNAc(b1-4)GlcNAc
# Outline: as §1
# [33] = target: Neu5Ac(a2-6)Gal(b1-4)GlcNAc(b1-2)Man(a1-6)[GlcNAc(b1-2)Man(a1-3)]Man(b1-4)GlcNAc(b1-4)GlcNAc
# Outline: as §1
# [34] = target: Neu5Ac(a2-6)Gal(b1-4)GlcNAc(b1-2)Man(a1-6)[Man(a1-3)]Man(b1-4)GlcNAc(b1-4)GlcNAc
# Outline: as §1
# [35] = target: Neu5Ac(a2-6)Gal(b1-4)GlcNAc(b1-3)Gal(b1-3)GlcNAc
# Outline: as §1
# [36] = target: Neu5Ac(a2-6)Gal(b1-4)GlcNAc(b1-3)Gal(b1-4)GlcNAc
# Outline: as §1
# [37] = target: Neu5Ac(a2-6)Gal(b1-4)GlcNAc(b1-3)Gal(b1-4)GlcNAc(b1-3)Gal(b1-4)GlcNAc
# Outline: as §1
# [38] = target: Neu5Ac(a2-6)Gal(b1-4)GlcNAc(b1-3)Gal(b1-4)[Fuc(a1-3)]GlcNAc(b1-3)Gal(b1-4)[Fuc(a1-3)]GlcNAc
# Outline: as §1
# [39] = target: Neu5Ac(a2-6)Gal(b1-4)GlcNAc(b1-3)GalNAc
# Outline: as §1
# [40] = target: Neu5Ac(a2-6)Gal(b1-4)GlcNAc(b1-3)[Neu5Ac(a2-6)Gal(b1-4)GlcNAc(b1-6)]GalNAc
# Outline: as §1
# [41] = target: Neu5Ac(a2-6)Gal(b1-4)GlcNAc(b1-6)GalNAc
# Outline: as §1
# [42] = target: Neu5Ac(a2-6)Gal(b1-4)GlcNAc(b1-6)[Gal(b1-3)GlcNAc(b1-3)]Gal(b1-4)Glc
# Outline: as §1
# [43] = target: Neu5Ac(a2-6)Gal(b1-4)GlcNAc6S
# Outline: as §1
# [44] = target: Neu5Ac(a2-6)GalNAc
# Outline: as §1
# [45] = target: Neu5Ac(a2-6)GalNAc(b1-4)GlcNAc
# Outline: as §1
binder,measurement,setting,value
Intelectin-1a (Mus musculus) (protein) AEWSHPQFEKAEENLDTNRWGNSFFSSLPRSCKEIKQEHTKAQDGLYFLRTKNGVIYQTFCDMTTAGGGWTLVASVHENNMRGKCTVGDRWSSQQGNRADYPEGDGNWANYNTFGSAEAATSDDYKNPGYFDIQAENLGIWHVPNKSPLHNWRKSSLLRYRTFTGFLQHLGHNLFGLYKKYPVKYGEGKCWTDNGPALPVVYDFGDARKTASYYSPSGQREFTAGYVQFRVFNNERAASALCAGVRVTGCNTEHHCIGGGGFFPEGNPVQCGDFASFDWDGYGTHNGYSSSRKITEAAVLLFYR,glycan array binding signal (z-score),[1],-0.713
same,glycan array binding signal (z-score),[2],-0.75
same,glycan array binding signal (z-score),[3],-1.21
same,glycan array binding signal (z-score),[4],0.113
same,glycan array binding signal (z-score),[5],0.398
same,glycan array binding signal (z-score),[6],0.133
same,glycan array binding signal (z-score),[7],0.655
same,glycan array binding signal (z-score),[8],-0.102
same,glycan array binding signal (z-score),[9],6.37
same,glycan array binding signal (z-score),[10],1.57
same,glycan array binding signal (z-score),[11],0.199
same,glycan array binding signal (z-score),[12],-1.27
same,glycan array binding signal (z-score),[13],0.841
same,glycan array binding signal (z-score),[14],0.532
same,glycan array binding signal (z-score),[15],-0.222
same,glycan array binding signal (z-score),[16],-0.899
same,glycan array binding signal (z-score),[17],-0.776
same,glycan array binding signal (z-score),[18],1.04
same,glycan array binding signal (z-score),[19],0.19
same,glycan array binding signal (z-score),[20],0.413
same,glycan array binding signal (z-score),[21],-0.689
same,glycan array binding signal (z-score),[22],0.917
same,glycan array binding signal (z-score),[23],-0.441
same,glycan array binding signal (z-score),[24],0.578
same,glycan array binding signal (z-score),[25],-1.07
same,glycan array binding signal (z-score),[26],-0.169
same,glycan array binding signal (z-score),[27],1.06
same,glycan array binding signal (z-score),[28],3.98
same,glycan array binding signal (z-score),[29],-0.048
same,glycan array binding signal (z-score),[30],2.24
same,glycan array binding signal (z-score),[31],-0.293
same,glycan array binding signal (z-score),[32],-0.073
same,glycan array binding signal (z-score),[33],-0.501
same,glycan array binding signal (z-score),[34],-0.534
same,glycan array binding signal (z-score),[35],0.123
same,glycan array binding signal (z-score),[36],-1.04
same,glycan array binding signal (z-score),[37],0.765
same,glycan array binding signal (z-score),[38],-0.773
same,glycan array binding signal (z-score),[39],-0.57
same,glycan array binding signal (z-score),[40],-0.797
same,glycan array binding signal (z-score),[41],0.847
same,glycan array binding signal (z-score),[42],-0.439
same,glycan array binding signal (z-score),[43],-0.302
same,glycan array binding signal (z-score),[44],-0.306
same,glycan array binding signal (z-score),[45],-0.624

# Source: the supplement of paper PMC8728848
